{"source": "patent US11504380B2", "about": "“Method of treatment of cirrhosis” (INVENTIVA, priority 2019, dated 2022)", "tested_on": "rat model of cirrhosis induced by the administration of thioacetamide (TAA)", "assay": "Systemic and hepatic hemodynamics, ascites and body/organ weights in TAA-induced cirrhotic rats", "assay_type": "in vivo, Sprague Dawley rats", "conditions": "TAA-exposed rats, 100 mg/kg/day orally for two weeks", "from_the_text": "Lanifibranor has been assessed in a rat model of cirrhosis induced by the administration of thioacetamide (TAA), which administration leads to the development of fibrosis in the early time points and then of cirrhosis in the late time points, turning for the majority of the animals to decompensated cirrhosis. Sprague Dawley rats (12-15 rats per groups) were intraperitoneally administered TAA (twice a week) for a period of twelve weeks to ensure reaching decompensated cirrhosis. At the end of this period, a TAA detoxification period of four days was observed. The rats were then orally administered for two weeks with either lanifibranor at 100 mg/kg/day in vehicle (methylcellulose 1%+poloxamer-188 0.1%), or with vehicle alone (control). At the end of the two weeks of treatment in vivo systemic and hepatic hemodynamics were determined and rats were then sacrificed, and plasma samples and liver tissue were harvested. The hemodynamics measurements were obtained as follow: mean arterial pressure (MAP) and heart rate (HR) were measured by cannulating the femoral artery; portal pressure (PP) was measured by cannulating the ileocolic vein, both with a heparinized p50 catheter (Portex) connected to a pressure probe; portal blood flow (PBF) was determined with the help of specific non-constrictive perivascular ultrasonic transit-time flow probe (Transonic Systems Inc.)."}
{"smiles": "O=C(O)CCCc1cc2cc(Cl)ccc2n1S(=O)(=O)c1ccc2ncsc2c1", "note": "[Lanifibranor, 4-[1-(1,3-benzothiazol-6-ylsulfonyl)-5-chloroindol-2-yl]butanoic acid]", "values": [{"measurement": "Body weight", "value": "484 ± 16", "unit": "g"}, {"measurement": "HR (heart rate)", "value": "334 ± 8", "unit": "bpm"}, {"measurement": "Liver weight", "value": "14.1 ± 0.7", "unit": "g"}, {"measurement": "Body weight", "setting": "listed as lanifibranor", "value": "No change"}, {"measurement": "HR (heart rate)", "setting": "listed as lanifibranor", "value": "No change"}, {"measurement": "Liver weight", "setting": "listed as lanifibranor", "value": "No change"}]}
